These are yes or no findings as the source states them, for the method shown. Binding seen in cells or lysates may run through a third protein. A yes stands for co-enrichment or nearness to the bait. Other partners may have been found. For part of these data: Where a sequence is shown, tags or fusion partners need not be part of it.
Tests used:
[1] = target: myc-BirA*-eIF3A fusion protein (UniProt Q14152); assay: proximity labelling; BioID: myc-BirA*-eIF3A against the myc-BirA* control, transiently transfected HEK-293T and HCT-116 cells, 50 µM biotin for 6 h or 24 h; RIPA lysate, streptavidin magnetic beads, washes with 8 M urea, 1% Triton, 0.5 M NaCl, 20% acetonitrile; on-bead trypsin digestion, LC-MS/MS, label-free ratio BirA*-eIF3A to BirA* above 1.5; some hits also kept in cells pre-treated with 1 µM thapsigargin
[2] = target: myc-BirA*-eIF3A fusion protein (UniProt Q14152); assay: proximity labelling; BioID as a1, but cells treated with 1 µM thapsigargin (ER stress) for 3 h before biotin for 6 h or 24 h

Sequences of proteins named here, by UniProt entry; tags and fusion partners are left off.
UniProt Q14152: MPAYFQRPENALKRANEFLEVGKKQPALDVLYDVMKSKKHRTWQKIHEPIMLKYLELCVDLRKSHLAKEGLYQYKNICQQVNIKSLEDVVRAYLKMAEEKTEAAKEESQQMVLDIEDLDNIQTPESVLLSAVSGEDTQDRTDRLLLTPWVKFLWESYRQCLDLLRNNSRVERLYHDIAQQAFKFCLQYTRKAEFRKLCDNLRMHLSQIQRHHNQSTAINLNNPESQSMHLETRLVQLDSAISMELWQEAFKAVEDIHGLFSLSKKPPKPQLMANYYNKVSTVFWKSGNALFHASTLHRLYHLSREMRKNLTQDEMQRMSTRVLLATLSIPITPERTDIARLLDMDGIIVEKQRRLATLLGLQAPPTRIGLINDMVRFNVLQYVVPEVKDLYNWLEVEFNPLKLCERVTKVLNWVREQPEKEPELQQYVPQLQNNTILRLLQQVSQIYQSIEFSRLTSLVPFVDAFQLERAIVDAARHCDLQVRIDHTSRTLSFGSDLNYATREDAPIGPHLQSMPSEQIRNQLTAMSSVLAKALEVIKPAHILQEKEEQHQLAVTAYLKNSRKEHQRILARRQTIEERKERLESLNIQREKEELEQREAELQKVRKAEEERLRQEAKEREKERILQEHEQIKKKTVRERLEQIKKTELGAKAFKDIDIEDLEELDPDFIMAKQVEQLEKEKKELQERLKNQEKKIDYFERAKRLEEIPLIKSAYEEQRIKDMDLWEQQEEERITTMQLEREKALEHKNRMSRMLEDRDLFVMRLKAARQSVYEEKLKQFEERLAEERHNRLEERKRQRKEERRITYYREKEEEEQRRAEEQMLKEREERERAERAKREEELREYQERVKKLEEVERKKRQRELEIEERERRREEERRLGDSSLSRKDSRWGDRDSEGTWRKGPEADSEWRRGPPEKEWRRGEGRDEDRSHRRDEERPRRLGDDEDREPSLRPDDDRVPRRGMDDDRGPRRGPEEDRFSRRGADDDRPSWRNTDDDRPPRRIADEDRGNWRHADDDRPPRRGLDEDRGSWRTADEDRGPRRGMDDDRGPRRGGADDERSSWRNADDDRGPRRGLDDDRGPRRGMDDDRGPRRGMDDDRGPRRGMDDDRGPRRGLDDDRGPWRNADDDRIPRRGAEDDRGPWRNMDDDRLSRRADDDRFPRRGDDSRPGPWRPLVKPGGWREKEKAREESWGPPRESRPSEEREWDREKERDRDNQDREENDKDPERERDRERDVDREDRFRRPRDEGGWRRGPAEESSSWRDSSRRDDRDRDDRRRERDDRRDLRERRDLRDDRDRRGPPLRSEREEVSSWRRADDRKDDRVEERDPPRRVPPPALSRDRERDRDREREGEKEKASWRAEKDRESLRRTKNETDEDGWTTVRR

Binder	binding [1]	binding [2]
ATPO (protein, UniProt P48047 24-213) FAKLVRPPVQVYGIEGRYATALYSAASKQNKLEQVEKELLRVAQILKEPKVAASVLNPYVKRSIKVKSLNDITAKERFSPLTTNLINLLAENGRLSNTQGVVSAFSTMMSVHRGEVPCTVTSASPLEEATLSELKTVLKSFLSQGQVLKLEAKTDPSILGGMIVRIGEKYVDMSVKTKIQKLGRAMREIV	binds	–
DCD (protein, UniProt P81605 20-110) YDPEAASAPGSGNPCHEASAAQKENAGEDPGLARQAPKPRKQRSSLLEKGLDGAKKAVGGLGKLGKDAVEDLESVGKGAVHDVKDVLDSVL	–	binds
HNRNPM (protein, UniProt P52272 1-730) MAAGVEAAAEVAATEIKMEEESGAPGVPSGNGAPGPKGEGERPAQNEKRKEKNIKRGGNRFEPYANPTKRYRAFITNIPFDVKWQSLKDLVKEKVGEVTYVELLMDAEGKSRGCAVVEFKMEESMKKAAEVLNKHSLSGRPLKVKEDPDGEHARRAMQKVMATTGGMGMGPGGPGMITIPPSILNNPNIPNEIIHALQAGRLGSTVFVANLDYKVGWKKLKEVFSMAGVVVRADILEDKDGKSRGIGTVTFEQSIEAVQAISMFNGQLLFDRPMHVKMDERALPKGDFFPPERPQQLPHGLGGIGMGLGPGGQPIDANHLNKGIGMGNIGPAGMGMEGIGFGINKMGGMEGPFGGGMENMGRFGSGMNMGRINEILSNALKRGEIIAKQGGGGGGGSVPGIERMGPGIDRLGGAGMERMGAGLGHGMDRVGSEIERMGLVMDRMGSVERMGSGIERMGPLGLDHMASSIERMGQTMERIGSGVERMGAGMGFGLERMAAPIDRVGQTIERMGSGVERMGPAIERMGLSMERMVPAGMGAGLERMGPVMDRMATGLERMGANNLERMGLERMGANSLERMGLERMGANSLERMGPAMGPALGAGIERMGLAMGGGGGASFDRAIEMERGNFGGSFAGSFGGAGGHAPGVARKACQIFVRNLPFDFTWKMLKDKFNECGHVLYADIKMENGKSKGCGVVKFESPEVAERACRMMNGMKLSGREIDVRIDRNA	binds	–

Second part, the binder after the results:

binding [1]	binding [2]	Binder
binds	–	MKL2 (protein, UniProt Q9ULH7 1-1088) MIDSSKKQQQGFPEILTAGDFEPLKEKECLEGSNQKSLKEVLQLRLQQRRTREQLVDQGIMPPLKSPAAFHEQIKSLERARTENFLKHKIRSRPDRSELVRMHILEETFAEPSLQATQMKLKRARLADDLNEKIAQRPGPMELVEKNILPVDSSVKEAIIGVGKEDYPHTQGDFSFDEDSSDALSPDQPASQESQGSAASPSEPKVSESPSPVTTNTPAQFASVSPTVPEFLKTPPTADQPPPRPAAPVLPTNTVSSAKPGPALVKQSHPKNPNDKHRSKKCKDPKPRVKKLKYHQYIPPDQKGEKNEPQMDSNYARLLQQQQLFLQLQILSQQKQHYNYQTILPAPFKPLNDKNSNSGNSALNNATPNTPRQNTSTPVRKPGPLPSSLDDLKVSELKTELKLRGLPVSGTKPDLIERLKPYQEVNSSGLAAGGIVAVSSSAIVTSNPEVTVALPVTTLHNTVTSSVSTLKAELPPTGTSNATRVENVHSPLPISPSPSEQSSLSTDDTNMADTFTEIMTMMSPSQFLSSSPLRMTNNEDSLSPTSSTLSNLELDAAEKDRKLQEKEKQIEELKRKLEQEQKLVEVLKMQLEVEKRGQQQRPLEAQPSAPGHSVKSDQKHGSLGSSIKDEASLPDCSSSRQPIPVASHAVGQPVSTGGQTLVAKKAVVIKQEVPVGQAEQQSVVSQFYVSSQGQPPPAVVAQPQALLTTQTAQLLLPVSIQGSSVTSVQLPVGSLKLQTSPQAGMQTQPQIATAAQIPTAALASGLAPTVPQTQDTFPQHVLSQPQQVRKVFTNSASSNTVLPYQRHPAPAVQQPFINKASNSVLQSRNAPLPSLQNGPNTPNKPSSPPPPQQFVVQHSLFGSPVAKTKDPPRYEEAIKQTRSTQAPLPEISNAHSQQMDDLFDILIKSGEISLPIKEEPSPISKMRPVTASITTMPVNTVVSRPPPQVQMAPPVSLEPMGSLSASLENQLEAFLDGTLPSANEIPPLQSSSEDREPFSLIEDLQNDLLSHSGMLDHSHSPMETSETQFAAGTPCLSLDLSDSNLDNMEWLDITMPNSSSGLTPLSTTAPSMFSADFLDPQDLPLPWD
binds	–	PTMA (protein, UniProt P06454 1-111) MSDAAVDTSSEITTKDLKEKKEVVEEAENGRDAPANGNAENEENGEQEADNEVDEEEEEGGEEEEEEEEGDGEEEDGDEDEEAESATGKRAAEDDEDDDVDTKKQKTDEDD
binds	–	LUC7L2 (protein, UniProt Q9Y383 1-392) MSAQAQMRAMLDQLMGTSRDGDTTRQRIKFSDDRVCKSHLLNCCPHDVLSGTRMDLGECLKVHDLALRADYEIASKEQDFFFELDAMDHLQSFIADCDRRTEVAKKRLAETQEEISAEVAAKAERVHELNEEIGKLLAKVEQLGAEGNVEESQKVMDEVEKARAKKREAEEVYRNSMPASSFQQQKLRVCEVCSAYLGLHDNDRRLADHFGGKLHLGFIEIREKLEELKRVVAEKQEKRNQERLKRREEREREEREKLRRSRSHSKNPKRSRSREHRRHRSRSMSRERKRRTRSKSREKRHRHRSRSSSRSRSRSHQRSRHSSRDRSRERSKRRSSKERFRDQDLASCDRDRSSRDRSPRDRDRKDKKRSYESANGRSEDRRSSEEREAGEI
